# Reference: patent publication US20150104466A1, “CYTOMEGALOVIRUS DISINTEGRIN-LIKE PEPTIDES” (priority 2013, published 2015)
# By UniProt entry, the sequences of proteins in these tests, tags left out. Residues count along the entry.
# UniProt P05556: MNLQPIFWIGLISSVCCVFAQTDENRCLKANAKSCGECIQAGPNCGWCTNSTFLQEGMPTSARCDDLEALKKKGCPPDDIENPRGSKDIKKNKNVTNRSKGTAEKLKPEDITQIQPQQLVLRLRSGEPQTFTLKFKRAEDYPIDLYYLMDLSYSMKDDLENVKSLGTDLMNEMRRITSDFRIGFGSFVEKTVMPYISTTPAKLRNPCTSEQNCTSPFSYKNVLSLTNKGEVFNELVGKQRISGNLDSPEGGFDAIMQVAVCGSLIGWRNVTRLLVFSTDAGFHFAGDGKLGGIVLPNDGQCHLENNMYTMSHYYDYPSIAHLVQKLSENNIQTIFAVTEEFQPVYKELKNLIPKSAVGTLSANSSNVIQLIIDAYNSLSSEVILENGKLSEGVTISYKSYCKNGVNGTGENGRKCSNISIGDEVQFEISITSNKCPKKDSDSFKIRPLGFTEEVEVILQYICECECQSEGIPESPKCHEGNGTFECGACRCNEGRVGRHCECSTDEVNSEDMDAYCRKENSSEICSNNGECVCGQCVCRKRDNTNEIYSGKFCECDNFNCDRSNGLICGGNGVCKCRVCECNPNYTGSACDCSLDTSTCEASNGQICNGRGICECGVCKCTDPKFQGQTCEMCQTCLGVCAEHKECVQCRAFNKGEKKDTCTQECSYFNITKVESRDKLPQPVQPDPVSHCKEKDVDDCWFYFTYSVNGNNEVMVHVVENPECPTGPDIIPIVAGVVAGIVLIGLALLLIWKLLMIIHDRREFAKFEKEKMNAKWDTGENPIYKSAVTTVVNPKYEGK
# UniProt P06473, residues 57-146: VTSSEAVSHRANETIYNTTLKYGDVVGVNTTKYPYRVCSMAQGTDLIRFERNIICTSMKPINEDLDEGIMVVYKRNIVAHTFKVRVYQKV
# No constants are given. Whether binding was seen depends on the method and setting. For some assays here: In cells and extracts the contact can be indirect. Some binding calls cover weakened binding; strength is not graded here.
# What was measured:
# β1 integrin (human) [1] = biological target: β1 integrin (human) (UniProt P05556); assay: His-tag pull-down on nickel beads from NHDF lysate, Western blot for β1 integrin
# β1 integrin (human) [2] = biological target: β1 integrin (human) (UniProt P05556); assay: Western blot of the pull-down (legend of FIG. 10)
substance,measurement,setting,value
"HCMV AD169 glycoprotein B disintegrin-like domain (amino acids 57-146), His-tagged, expressed in E. coli (from UniProt P06473 57-146)",binding,β1 integrin (human) [1],binds
same,binding,β1 integrin (human) [2],binds
